This passage reports binding results from publication PMC6548343.

Protein sequences, listed by entry. Tags and fused reporters are not part of them. Lines headed by an entry give the natural chain unless they say otherwise; changes in a name come on top. Residues count along the entry.
UniProt P53115: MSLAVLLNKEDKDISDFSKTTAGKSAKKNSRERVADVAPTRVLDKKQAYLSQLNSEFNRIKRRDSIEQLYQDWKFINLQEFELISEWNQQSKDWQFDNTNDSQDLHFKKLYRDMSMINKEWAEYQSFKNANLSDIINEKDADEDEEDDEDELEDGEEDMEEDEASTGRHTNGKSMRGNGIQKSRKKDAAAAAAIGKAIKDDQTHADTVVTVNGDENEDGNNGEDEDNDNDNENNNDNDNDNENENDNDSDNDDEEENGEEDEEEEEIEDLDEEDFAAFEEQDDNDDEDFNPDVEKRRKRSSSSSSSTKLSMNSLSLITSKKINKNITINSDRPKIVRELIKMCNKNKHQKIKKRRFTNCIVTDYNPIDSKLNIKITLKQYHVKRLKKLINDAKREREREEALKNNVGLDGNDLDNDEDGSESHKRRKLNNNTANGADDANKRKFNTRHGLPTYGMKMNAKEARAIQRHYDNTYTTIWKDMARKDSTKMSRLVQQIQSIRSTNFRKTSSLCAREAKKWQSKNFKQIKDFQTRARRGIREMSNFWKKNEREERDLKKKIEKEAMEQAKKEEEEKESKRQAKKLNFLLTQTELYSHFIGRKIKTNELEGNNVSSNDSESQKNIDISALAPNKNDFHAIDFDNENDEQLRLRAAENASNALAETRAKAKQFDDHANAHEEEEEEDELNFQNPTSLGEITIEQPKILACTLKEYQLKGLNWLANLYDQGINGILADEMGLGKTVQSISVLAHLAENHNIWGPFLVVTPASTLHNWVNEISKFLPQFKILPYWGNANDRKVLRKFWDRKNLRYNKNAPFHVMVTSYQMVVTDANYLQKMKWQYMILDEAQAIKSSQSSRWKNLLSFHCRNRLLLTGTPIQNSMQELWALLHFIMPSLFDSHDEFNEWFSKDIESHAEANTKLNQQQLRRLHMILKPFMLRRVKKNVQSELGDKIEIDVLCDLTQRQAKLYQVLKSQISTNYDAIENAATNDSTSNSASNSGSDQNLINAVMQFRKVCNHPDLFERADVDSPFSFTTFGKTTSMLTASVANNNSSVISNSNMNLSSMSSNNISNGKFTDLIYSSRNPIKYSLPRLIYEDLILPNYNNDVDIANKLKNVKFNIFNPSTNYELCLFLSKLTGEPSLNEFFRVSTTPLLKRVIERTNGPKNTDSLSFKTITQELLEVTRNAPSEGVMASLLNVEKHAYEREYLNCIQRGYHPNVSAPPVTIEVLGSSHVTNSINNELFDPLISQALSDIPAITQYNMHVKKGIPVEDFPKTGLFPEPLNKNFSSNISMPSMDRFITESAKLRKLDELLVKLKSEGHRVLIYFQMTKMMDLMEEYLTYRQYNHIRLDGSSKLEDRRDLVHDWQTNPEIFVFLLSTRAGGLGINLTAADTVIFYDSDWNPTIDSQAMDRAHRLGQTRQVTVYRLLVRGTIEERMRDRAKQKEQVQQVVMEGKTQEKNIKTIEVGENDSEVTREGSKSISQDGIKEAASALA
Ino80 (356–691 aa, named as N-FLAG): residues 356-691 of P53115

The target of assay [1] is Ino80 (356–691 aa, named as N-FLAG) (S. cerevisiae) (UniProt P53115). Kind of assay: affinity co-purification (FLAG resin, then Mono Q) with SDS-PAGE or EM of the fractions; whole-cell extract of S. cerevisiae, 30%–55% ammonium sulfate cut, FLAG resin 2 h at 4°C, washes with 500 mM and 50 mM ammonium sulfate, elution with 3×FLAG peptide, Mono Q gradient 100–1000 mM ammonium sulfate.

Assay [2] concerns the target Ino80 with C-terminal modified TAP tag (Arp8Δ and Ies1Δ strains) (S. cerevisiae) (UniProt P53115). The experiment in a line: EM 3D reconstruction with difference mapping; INO80 sub-complex purified by TAP-tagged Ino80 from the Arp8Δ strain, compared with the holoenzyme and with the Ies1Δ sub-complex.
Assay [3] deals with Ino80-2×FLAG (S. cerevisiae) (UniProt P53115). Kind of assay: cryo-EM structure; endogenous INO80 complex purified by Ino80-2×FLAG, GraFix (0.02% glutaraldehyde), 13.1 Å; modules assigned by difference maps with the Arp8Δ and Ies1Δ sub-complexes and by rigid-body fitting.

Results are given in words; binding and its absence hold for the method and conditions named. Some results given as binding are weak or reduced against the parent protein; the word gives no strength.

B1: Ies4 (protein, UniProt Q08561 1-116)
chain: MSQESSVLSESQEQLANNPKIEDTSPPSANSRDNSKPVLPWDYKNKAIEIKSFSGYKVNFTGWIRRDVREERQRGSEFTASDVKGSDDKATRKKEPADEDPEVKQLEKEGEDGLDS
Regarding B1, the binding entry in assay [1] is reported as “binds”.

B2: Nhp10 module (Nhp10–Ies1–Ies3–Ies5) (complex, UniProt Q03435 1-203; P43579 1-692; Q12345 1-250; P40060 1-125)
chain 1: MSVEEKKRRLEELKDQNVVLGLAIQRSRLSVKRLKLEYGVLLERLESRIELDPELNCEDPLPTLASFKQELLTKPFRKSKTKRHKVKERDPNMPKRPTNAYLLYCEMNKERIRQNGSLDVTRDLAEGWKNLNEQDRKPYYKLYSEDRERYQMEMEIYNKKISNIDADDDKEENEQKIKNNEEGSSTKVADSKGGEDGSLVSSN
chain 2: MGKRVYDPIHDTFQLREDNSDETKADSPMQSVKSGSQEEASPSSIQSETETVTTKSIPVIHEIEIDDKNDDDSTQSEEENTNILLNFEPSTVPEATGASTATGPVTTNTVRRKPKESNASKYNRHLKKPDGEPFNRKDIQFSFMQELLMDKRQIFTNVLKPLYKNSIVPINIDGDKLSINVTDKEYDARTFVFNDKLTFAQLYVLTIATSIKCSKILRDKLLLDQQVAFSTCVLALLVNIGRLNTTINFYLEMTSQLRTFHSVPVLQLHANDPKLLQDTPRLKSILKNLPWGNEQLSLMETYKKVDQNDGEVDTVNKFNIINMLFSICDNSGLIDKRFLSKYVEVESKAQEQDMVDEQNEVKETEAENEKQESKAAYATTLFDILDYSKYEPKDRSNILIWLLYIHLETNLSQEEVEESVRFFNGLEDGAPAGKFILRCTERSYDTDPEDELEFGANQRIKRREFMSKMEEGRKRERTNVTEVKKPSIGGDKSEEDGEGEDDKSEETVEETRSLLTPTPILESSSPMTLNRKKVTPQLPKVTPAAPTETEEEITSAAIIDKNDLNLTPLKKYNSSATVNKVDKLISLDLNKHVSENGKTQEEFLADLKKSQVPNRLKRRDIGLIKIFNEFEDIPVASVLGIRGKKRKKFKDNLLGFETDFMKNLGASKKVLLNKIERAEIDDEEATAMFKLE
chain 3: MKFEDLLATNKQVQFAHAATQHYKSVKTPDFLEKDPHHKKFHNADGLNQQGSSTPSTATDANAASTASTHTNTTTFKRHIVAVDDISKMNYEMIKNSPGNVITNANQDEIDISTLKTRLYKDNLYAMNDNFLQAVNDQIVTLNAAEQDQETEDPDLSDDEKIDILTKIQENLLEEYQKLSQKERKWFILKELLLDANVELDLFSNRGRKASHPIAFGAVAIPTNVNANSLAFNRTKRRKINKNGLLENIL
chain 4: MPSKDPESVIDKEIRKISARNDELIKQDGTLKREYTTLLRKVSSVITVLNSIDDADTGSAETELPRLISQATVEKVPELKWYNDQISLITEKLEDDEDIEVPEELMDAYTLYKETPLLYNDTHTP
Turning to B2, the binding entry in assay [2] and in assay [3] was “binds” in each case.
